# In the supplement of paper PMC11348887:
# Some of the results follow. Small differences around the control level are noise.
# Tested on: hPSC-derived cortical neurons (WA09)
# Assay: total neurite length per nucleus (MAP2) z-score; higher = more neurite growth
# Conditions: 5 µM; treatment: days 7-14 after plating, readout day 21
row,Structure (SMILES),total neurite length per nucleus (z-score)
1,COc1ccc2[nH]c([S+]([O-])Cc3ncc(C)c(OC)c3C)nc2n1 (stereo unspecified) [Tenatoprazole],-0.409
2,COc1cc([C@@H]2c3cc4c(cc3[C@@H](O[C@@H]3O[C@@H]5CO[C@@H](c6cccs6)O[C@H]5[C@H](O)[C@H]3O)[C@H]3COC(=O)[C@H]23)OCO4)cc(OC)c1O [Teniposide],-0.512
3,COc1cc(OC)c(C=C2C(=O)Nc3ccccc32)c(OC)c1,-0.239
4,COc1ccc(Cl)cc1C(=O)NCCc1ccc(S(=O)(=O)NC(=O)NC2CCCCC2)cc1 [Glyburide],0.0455
5,Nc1ncn([C@H]2C[C@H](O)[C@@H](CO)O2)c(=O)n1 [Decitabine],0.395
6,Cc1cc2c(F)c(Oc3ncnn4cc(OC[C@@H](C)OC(=O)[C@H](C)N)c(C)c34)ccc2[nH]1,1.94
7,COc1ccc2cc([C@H](C)C(=O)O)ccc2c1 [Naproxen],-1.3
8,CC[C@H](c1ccc(O)cc1)[C@@H](CC)c1ccc(O)cc1 [Hexestrol],-0.0682
9,N[C@@H](CSCCCO)C(=O)O [Fudosteine],0.955
10,CCc1c(Cl)c(O)c(Cl)c(O)c1C(=O)O[C@H]1[C@H](O)[C@H](OC)[C@H](OC/C2=C\C=C\C[C@H](O)/C(C)=C/[C@H](CC)[C@@H](O[C@@H]3OC(C)(C)[C@@H](OC(=O)C(C)C)[C@H](O)[C@@H]3O)/C(C)=C/C(C)=C/C[C@@H]([C@@H](C)O)OC2=O)O[C@@H]1C [Fidaxomicin],-1.28
11,Cc1nc(C#Cc2ccnc(Cl)c2)c(C)n1-c1ccc(OC(F)(F)F)cc1,0.00831

# Arranged by heavy-atom count (high to low): part of the list above.
row,Structure (SMILES),total neurite length per nucleus (z-score)
6,Cc1cc2c(F)c(Oc3ncnn4cc(OC[C@@H](C)OC(=O)[C@H](C)N)c(C)c34)ccc2[nH]1,1.94
11,Cc1nc(C#Cc2ccnc(Cl)c2)c(C)n1-c1ccc(OC(F)(F)F)cc1,0.00831
3,COc1cc(OC)c(C=C2C(=O)Nc3ccccc32)c(OC)c1,-0.239
